# Laboratory results: the supplement of paper PMC10727501
# This is one part of the list. Single values are uncertain here, since repeats match poorly.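 Free-swimming zebrafish larvae were scored for O-bend response probability to dark flashes (naive: first five; training: remaining flashes of four 60-flash blocks; test: later 60-flash block) and for turning toward alternating leftward/rightward LED motion (OMR). Six treated larvae were compared with sixty 0.1% DMSO controls; |SSMD|≥2 defined a hit.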
# Test system: Danio rerio larvae (5 dpf, TLF)
# Experiment: Prob-Test (SSMD vs DMSO vehicle); higher = higher than vehicle (e.g. higher dark-flash O-bend response probability, or better optomotor performance)
# Conditions: 10 µM; pre-incubation: 30-90 min
row,Structure (SMILES),Prob-Test
1,CCc1cccc(CC)c1NC(=O)N1Cc2[nH]nc(NC(=O)c3ccc(N4CCN(C)CC4)cc3)c2C1,0.195
2,CCCc1nn(C)c2c(=O)[nH]c(-c3cc(S(=O)(=O)N4CCN(C)CC4)ccc3OCC)nc12.O=C(O)CC(O)(CC(=O)O)C(=O)O [Sildenafil Citrate],-0.251
3,N#Cc1c(O)c2c(-c3ccc(-c4ccccc4O)cc3)csc2[nH]c1=O,0.102
4,COc1cc(N2CCC(N)CC2)ccc1Nc1ncc(Cl)c(-c2c[nH]c3ccccc23)n1,-0.085
5,COc1ccc(C2=NC(c3ccc(Cl)cc3)C(c3ccc(Cl)cc3)N2C(=O)N2CCNC(=O)C2)c(OC(C)C)c1 (stereo unspecified) [Nutlin-3],-0.59
6,O=C1c2ccc(Nc3ccc(F)cc3F)cc2CCc2ccc(OC[C@H](O)CO)cc21 [Skepinone-L],-1.09
7,O=C1NC(=O)/C(=C/c2ccc(-c3ccc(F)cc3O)o2)S1,-1.03
8,Cc1c(Cc2ccc3ccccc3n2)c2cc(F)ccc2n1CC(=O)O,0.172
9,Cc1onc(-c2ccccc2)c1-c1ccc(S(N)(=O)=O)cc1 [Valdecoxib],-0.267
10,Cc1ccnc2c1NC(=O)c1cccnc1N2C1CC1 [Nevirapine],0.313
11,COc1ccc(C(=O)CC(=O)c2ccc(C(C)(C)C)cc2)cc1 [Avobenzone],-1.18
12,COCCOc1ccc2c(c1)ncn2-c1ccc2cccc(N3CCC(N)CC3)c2n1,0.0373
13,NC(=O)c1cccnc1 [Nicotinamide (Vitamin B3)],-0.0465
14,O=C(CCc1ccc(O)cc1)c1c(O)cc(O)cc1O[C@@H]1O[C@H](CO)[C@@H](O)[C@H](O)[C@@H]1O [Phlorizin],-0.14
15,O=c1c(O)c(-c2cc(O)c(O)c(O)c2)oc2cc(O)cc(O)c12 [Myricetin],0.476
16,C[N+](C)(C)CC(O)CC(=O)O.[Cl-] (racemic) [DL-Carnitine HCl],0.0775

# 2 consecutive entries out of the list so far, for reference:
row,Structure (SMILES),Prob-Test
3,N#Cc1c(O)c2c(-c3ccc(-c4ccccc4O)cc3)csc2[nH]c1=O,0.102
4,COc1cc(N2CCC(N)CC2)ccc1Nc1ncc(Cl)c(-c2c[nH]c3ccccc23)n1,-0.085

# Continued.

row,Structure (SMILES),Prob-Test
1,Oc1ccc([C@H]2COc3cc(O)ccc3C2)cc1 [Equol],0.648
2,N[C@@H]1CCCC[C@H]1N.O=C([O-])C(=O)[O-].[Pt+2] [Oxaliplatin],0.129
3,O=C(Oc1cc(S(=O)(=O)c2ccccc2)ccc1[N+](=O)[O-])c1ccc(Cl)cc1,-0.929
4,C=CCNC1=C2C[C@@H](C)C[C@H](OC)[C@H](O)[C@@H](C)/C=C(\C)[C@H](OC(N)=O)[C@@H](OC)/C=C\C=C(\C)C(=O)NC(=CC1=O)C2=O [17-AAG (Tanespimycin)],-0.101
5,CC1=C(/C=C/C(C)=C\C=C\C(C)=C/C(=O)O)C(C)(C)CCC1 [Isotretinoin],0.478
6,Cc1ccc(F)c(NC(=O)Nc2ccc(-c3cccc4[nH]nc(N)c34)cc2)c1 [Linifanib (ABT-869)],0.0668
7,COc1ccccc1OCC(O)CN1CCN(CC(=O)Nc2c(C)cccc2C)CC1 (stereo unspecified) [Ranolazine],0.242
8,O=C(Nc1ccc2c(=O)cc(-c3nnn[nH]3)oc2c1)c1ccc(OCCCCc2ccccc2)cc1 [Pranlukast],0.58
9,CN(c1ncccc1CNc1nc(Nc2ccc3c(c2)CC(=O)N3)ncc1C(F)(F)F)S(C)(=O)=O,0.0143
10,CC(C)[C@@H](C)/C=C/[C@@H](C)[C@@H]1CC[C@H]2C3=CC=C4C[C@@H](O)CC[C@]4(C)[C@@H]3CC[C@@]21C [Ergosterol],0.637
11,CN(C)Cc1ccc(S(=O)(=O)n2ccc(/C=C/C(=O)NO)c2)cc1 [Resminostat],0.291
12,Clc1ccc2c(c1)CCc1cccnc1C2=C1CCNCC1 [Desloratadine],-0.153
13,COc1cc(F)c(C(C)C)cc1-c1ccc(C(F)(F)F)cc1CN1C(=O)O[C@H](c2cc(C(F)(F)F)cc(C(F)(F)F)c2)[C@H]1C [Anacetrapib (MK-0859)],-0.0764
14,COc1ccc(C2C(=O)c3ccccc3C2=O)cc1 [Anisindione],-0.0596
15,COc1ccc(/C=C/C(=O)Nc2ccccc2C(=O)O)cc1OC [Tranilast],-0.41
